# Results as given in PubChem BioAssay AID1347076 (National Center for Advancing Translational Sciences (NCATS), 2019).
# Screen size: about 400,000 compounds; about 13,000 (3.2%) were called active. Inconclusive results, whose numbers are uncertain, are shown with a selection of clear calls. The call rests on the fitted dose curve; in most records, active means well fitted cell-killing curve with a large enough effect; inconclusive means small, poorly fitted or top-dose-only effect, or effect the other way; inactive means flat fitted curve, though single readings scatter. Potencies of inconclusive entries are doubtful fits and often do not repeat.
# Test: qHTS assay for MDR1-selective chemotherapeutics: Primary screen using the drug-selected MDR subline cells KB-V1; further: nearly all actives have a fitted effect of over 60% in size
# Conditions: KB-V1 MDR cells viability, CellTiter-Glo, 72 h; activity change, negative = cytotoxicity: at 46.1 µM (top of the series)
# Summary of the method: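 Cells of the MDR subline KB-V1 are plated, dosed with compound at multiple concentrations, and incubated 72 h at 37 degrees C; CellTiter-Glo is then added and luminescence read after 10 min.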
# On the % scale 0 is the no-effect control and ±100 the full control effect; potency means the concentration at half of the fitted maximal effect.
SMILES,Potency,"activity change, negative = cytotoxicity"
Cc1ccc(NC(=O)COC(=O)C2COc3ccccc3O2)cc1 (stereo not given),"inconclusive: 0.517 µM [cytotoxic, partial curve, poor fit]",
Cc1cccc(N(CC(=O)NCCSCc2ccccc2)S(C)(=O)=O)c1C,"inconclusive: 14.6 µM [cytotoxic, partial curve, poor fit]",
Cc1onc(-c2ccccc2)c1C(=O)N/N=C/c1cn(C)c2ccccc12,"inconclusive: 14.6 µM [cytotoxic, partial curve]",
c1ccc(CNc2nnnn2-c2ccccc2)cc1,active: 20.6 µM,
CCCCNC(=O)CNC(=S)N(Cc1ccccc1F)C1CCCCC1,"inconclusive: 8.2 µM [cytotoxic, partial curve]",
CCN(CC)c1ccc(S(=O)(=O)N2CCCCC2)cc1NC(=O)C1CCC1,"inconclusive: 29.1 µM [cytotoxic, single point]",
CC(C)(C)OC(=O)C[C@H]1C/C=C\C[C@@H](CC(=O)N(CCO)Cc2ccccc2)C(=O)NC[C@H](c2ccccc2)OC1=O,,inactive: 2.97%
COc1cc(C#N)c(NS(=O)(=O)c2ccc3[nH]c(=O)sc3c2)cc1OC,"inconclusive: 25.9 µM [rising, single point]",
Cc1c(C(=O)NCc2ccccc2)sc(=O)n1Cc1ccccc1F,"inconclusive: 20.6 µM [cytotoxic, single point]",
Cc1ccnc(NC(=O)CNC(=O)c2cccs2)c1,"inconclusive: 29.1 µM [rising, single point]",
COc1ccc(-c2nc(C)c(CCNC(=O)c3cc(OC)c(OC)c(OC)c3)s2)cc1OC,"inconclusive: 8.2 µM [cytotoxic, partial curve]",
COc1ccc(S(=O)(=O)Nc2ccc(S(=O)(=O)N3CCCCC3)cc2)cc1C,,inactive: -21.8%
O=C(NCc1ccccc1)c1cc2ccccc2o1,"inconclusive: 2.91 µM [rising, full curve]",
CC(=O)Nc1cccc(Oc2ncnc3scc(-c4ccccc4)c23)c1,"inconclusive: 23.1 µM [cytotoxic, single point]",
O=C(NCCCc1ccccc1)C1CCC(=O)N(CCc2ccc(Cl)cc2)C1 (stereo not given),"inconclusive: 7.31 µM [cytotoxic, partial curve]",
c1ccc2c(c1)ncn2Cc1nnc2sc(-c3ccc4c(c3)OCO4)nn12,"inconclusive: 23.1 µM [cytotoxic, single point]",
CCOc1ccc(OCC(=O)N2CCC3(CC2)CC(=O)c2ccccc2O3)cc1,"inconclusive: 25.9 µM [cytotoxic, partial curve, poor fit]",
O=C(c1ccc(Cl)c(S(=O)(=O)N2CCOCC2)c1)N(c1ccccn1)C1CCCCC1,"inconclusive: 7.31 µM [cytotoxic, partial curve]",
CCOc1ccccc1N(C)C(=O)Cn1cnc2onc(-c3ccc(F)cc3)c2c1=O,"inconclusive: 25.9 µM [cytotoxic, partial curve]",
O=C(OCc1cn([C@H]2C[C@H](c3ccccc3)N(C(=O)c3cccs3)C[C@@H]2O)nn1)c1ccccc1,,inactive: 13.1%

SMILES,Potency,"activity change, negative = cytotoxicity"
COc1ccccc1C1=NOC(Cn2c(NCC3CCCO3)nc3c2c(=O)n(C)c(=O)n3C)C1 (stereo not given),"inconclusive: 29.1 µM [cytotoxic, single point]",
COc1ccc2c(CNCc3cccs3)c(C(=O)O)n(Cc3ccc(F)cc3Cl)c2c1,"inconclusive: 0.0326 µM [rising, full curve]",
COc1ccc(OC)c(NC(=S)N2CCCC2)c1,"inconclusive: 20.6 µM [rising, partial curve]",
NC(COCc1ccccc1)c1csc(Nc2cc(Oc3ccccc3)ncn2)n1 (stereo not given),"inconclusive: 29.1 µM [cytotoxic, single point]",
CC1=NN(c2ccc(C)cc2)C(=O)/C1=C\C=C\c1ccccc1,"inconclusive: 18.4 µM [cytotoxic, partial curve, poor fit]",
Cc1nc(N2CCN(S(=O)(=O)c3cccs3)CC2)c2c(-c3ccccc3)c(C)sc2n1,"inconclusive: 13 µM [cytotoxic, partial curve]",
Cc1ccccc1C1C(C#N)=C2N=C(N)c3c(sc4c3CCCCC4)N2C2=C1C(=O)CC(C)(C)C2 (stereo not given),,inactive: -28.8%
CC(C)C(C)NC(=O)COc1ccc(-c2ccccc2)cc1 (stereo not given),"inconclusive: 20.6 µM [cytotoxic, single point]",
O=C(Nc1cc(S(=O)(=O)N2CCCCCC2)ccc1OCC(F)(F)F)C1CCC1,"inconclusive: 23.1 µM [cytotoxic, partial curve, poor fit]",
COCC(CN1CCN(C2=NS(=O)(=O)c3ccccc32)CC1)OC(=O)c1ccc(OC)cc1 (stereo not given),"inconclusive: 29.1 µM [cytotoxic, partial curve, poor fit]",
CCOC(=O)c1c(NC(=O)c2ccccc2Br)sc2c1CCc1ccccc1-2,active: 13 µM,
CCOc1ccccc1CN1CCNC(=O)C1CC(=O)NC1CCCCCCC1 (stereo not given),"inconclusive: 20.6 µM [cytotoxic, single point]",
CCOc1ccc(N2C(=O)C3CCCN3C2=S)cc1 (stereo not given),"inconclusive: 29.1 µM [rising, single point]",
C=CCN(c1ccccc1)S(=O)(=O)c1cccc(C(=O)NC2CCN(Cc3ccccc3)CC2)c1,"inconclusive: 29.1 µM [cytotoxic, single point]",
CC(C)Oc1cccc(C(=O)Nc2ccc(-c3nc4cc(Cl)cc(Cl)c4o3)cc2)c1,,inactive: 3.79%
CCC1C(=O)Nc2nc(-c3ccccc3)c(-c3ccccc3)n2N=C1C (stereo not given),"inconclusive: 13 µM [cytotoxic, partial curve]",
O=C1CC2(CCN(C(=O)c3ccccc3Br)CC2)Oc2ccccc21,"inconclusive: 16.4 µM [cytotoxic, single point]",
COc1ccc(/C=N/NC(=O)c2sc3nc(C)cc(C)c3c2N)cc1,,inactive: 12.6%
C=C1C=C(C(F)F)n2ncc(C(=O)Nc3cccc(CC)c3)c2N1,"inconclusive: 29.1 µM [rising, partial curve, poor fit]",
CCCCCn1c(=N)c(S(=O)(=O)c2ccccc2)cc2c(=O)n3cccc(C)c3nc21,,inactive: -16%

# Ordered by SMILES length (ascending): 3 of the compounds above
SMILES,Potency,"activity change, negative = cytotoxicity"
C=C1C=C(C(F)F)n2ncc(C(=O)Nc3cccc(CC)c3)c2N1,"inconclusive: 29.1 µM [rising, partial curve, poor fit]",
CC(C)Oc1cccc(C(=O)Nc2ccc(-c3nc4cc(Cl)cc(Cl)c4o3)cc2)c1,,inactive: 3.79%
COc1ccccc1C1=NOC(Cn2c(NCC3CCCO3)nc3c2c(=O)n(C)c(=O)n3C)C1 (stereo not given),"inconclusive: 29.1 µM [cytotoxic, single point]",
